From PubChem BioAssay AID2685 (National Center for Advancing Translational Sciences (NCATS), 2010) come the findings set out here.

Some of the results follow. Further columns of the screen follow, without active or inactive calls. The list favours compounds with an active or inconclusive main result. Words in brackets tell the shape of the fitted curve; partial curves, single points and poor fits give uncertain potencies.

The assay is described as follows: qHTS Assay for Lipid Storage Modulators in Drosophila S3 Cells.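 As to cell number change: cells counted by Cell Tracker Red CMTPX staining in the red channel.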 Conditions: BODIPY lipid droplet fluorescence, 18-24 h; for cell number change: measured here: cell count max response, cells fed with added oleic acid. The method, boiled down:
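Drosophila S3 cells loaded with oleic acid (400 uM, as added) and compounds at several concentrations; lipid droplets imaged by 488-nm laser-scanning cytometry, 500–530 nm intensity and object ratio to cell channel. Percent activity normalized to 20 uM Triacsin C.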
In general terms: Quantitative high-throughput screening tests each substance at several concentrations.

Where [1] appears, read: measured here: cell number channel AC50, cells fed with added oleic acid.
Where [2] appears, read: measured here: lipid fluorescence (Fed channel) AC50, cells fed with added oleic acid.

On to `COc1cccc(CNc2ccc(F)c(Cl)c2)c1O`, for which the cell number change turned out to be 95%. Further, the AC50 under setting [1] was 6.51 µM [falling, partial curve, poor fit]. Also, the AC50 under setting [2] is 1.64 µM [falling, partial curve, poor fit].

With `CCN(CC(=O)NCCc1ccc(S(N)(=O)=O)cc1)Cc1ccccc1`, the cell number change was 17.6%. Further, the AC50 under setting [2] was 23.1 µM [rising, partial curve, poor fit].

Turning to `Cc1ccc(S(=O)(=O)N(C)CC(=O)O/N=C(\N)c2cccc([N+](=O)[O-])c2)cc1`, the AC50 under setting [1] is 0.82 µM [falling, single point].

On to `COc1ccc(S(=O)(=O)N(C)C)cc1NC(=O)Cc1c[nH]c2ccccc12`, for which the cell number change amounted to 48.3%. Moreover, the concentration at half-maximal activity (AC50) under setting [1] is 0.92 µM [rising, full curve].

Turning to `COc1ccccc1CC(=O)Nc1ccc(S(=O)(=O)N2CCCCC2)cc1`, the cell number change was 13.3%.

Take `CC(=O)Nc1ccc(OCc2cnc(Cl)s2)cc1`: the cell number change was determined as 75.2%. In addition, the concentration at half-maximal activity (AC50) under setting [1] was 6.51 µM [falling, single point]. Further, the AC50 under setting [2] was 6.51 µM [falling, single point].

As for `COc1ccccc1OCCn1c(=S)[nH]c2ccccc21`, the cell number change is -18.3%. In addition, the AC50 under setting [2] was 10.3 µM [falling, partial curve, poor fit].

With `CCN(C(=O)c1cc2cc3ccc(C)cc3nc2o1)c1ccc(OC)cc1`, under setting [2], the AC50 was 3.66 µM [rising, partial curve].

With `O=C(O)/C=C/C(=O)Nc1ccc(OC(F)(F)F)cc1`, the cell number change is -16.6%. Further, the half-maximal activity concentration (AC50) under setting [2] was 20.6 µM [falling, single point].

For `CCOc1ccccc1N1CCN(C(=O)c2cc3c(s2)CCC3)CC1`, the cell number change was -14.1%. Besides, the AC50 under setting [2] is 4.61 µM [rising, full curve].

For the molecule `O=C(O)c1ccc(N=C2NC(=O)C(CO)(CO)S2)cc1`, the cell number change turned out to be 0.265%.

Turning to `CN(C)CCNC(=O)c1ccc(COCC(F)(F)F)cc1`, the cell number change is -134%. For the same molecule, under setting [1], the AC50 is 25.9 µM [falling, partial curve]. Also, under setting [2], the concentration at half-maximal activity (AC50) was 25.9 µM [falling, partial curve].

With `Cc1ccc(S(=O)(=O)N2CCCC2)cc1C(=O)NCc1ccccc1CN1CCCC1`, the cell number change worked out at 13.7%. Also, under setting [2], the AC50 is 0.00651 µM [rising, full curve, poor fit].

`O=C(CNC(=O)C1CCCCC1)Nc1ccc(F)c(Cl)c1`: the cell number change was -31.9%.

On to `CCOC(=O)c1ccc(-n2ccnc2)c(NC(=O)c2ccc(Cl)cc2)c1`, for which the cell number change is -0.705%. For the same molecule, under setting [2], the concentration at half-maximal activity (AC50) is 29.1 µM [rising, single point].

As for `COc1ccccc1N(CC(=O)NC1CCCC1)C(=O)c1csnn1`, the AC50 under setting [2] is 9.2 µM [rising, partial curve, poor fit].

Take `CC(C)NC(=O)c1onc(CSc2nc3ccccc3[nH]2)c1C(=O)NC(C)C`: the cell number change was 20.1%. The half-maximal activity concentration (AC50) under setting [1] was 7.31 µM [rising, partial curve, poor fit].

As to `Cc1ccc(C(=O)Nc2cccc(C(=O)NCc3ccccc3)c2)o1`, the cell number change is -7.22%. Besides, under setting [2], the AC50 was 0.291 µM [rising, full curve, poor fit].

For the molecule `Cc1ccc(N=Nc2c(C)[nH]n(C(N)=S)c2=O)cc1C`, the cell number change is 4.55%.

As to `COc1cc(C(=O)Nc2ccc3c(c2)OCCO3)ccc1OC(C)C`, the cell number change came to 118%. Besides, the concentration at half-maximal activity (AC50) under setting [1] is 1.16 µM [rising, full curve]. In addition, under setting [2], the AC50 was 29.1 µM [rising, single point].

With `CCCCOc1ccc(C(=O)N2CCNC(=O)C2)cc1`, the cell number change is -32.4%. The half-maximal activity concentration (AC50) under setting [1] was 0.013 µM [falling, full curve, poor fit]. In addition, the AC50 under setting [2] is 6.51 µM [rising, single point].

Regarding `CN(CC(=O)NC1CCCCCC1)S(=O)(=O)c1ccc(F)cc1`, the cell number change was -1.13%. The AC50 under setting [2] was 20.6 µM [rising, partial curve].

For the molecule `Cc1ccc(/C=C2/Sc3ccc(C(=O)NCCN4CCOCC4)cc3NC2=O)cc1`, the cell number change came out at 2.85%.

Regarding `O=S(=O)(CCC1CCCCN1)c1ccccc1` (stereo not drawn), the cell number change was found to be 19.1%.

For the molecule `COc1ccc(NC(=S)N2CCN(S(=O)(=O)c3ccccc3)CC2)cc1OC`, the cell number change was -0.99%. In addition, the half-maximal activity concentration (AC50) under setting [2] is 0.58 µM [rising, single point].

In the case of `Cc1cc(F)ccc1S(=O)(=O)N1CCCOC1CNC(=O)C(=O)NCCc1ccccc1` (stereo not drawn), the cell number change was 23.4%. The AC50 under setting [2] was 2.06 µM [rising, full curve].

For `NCCCCCC(=O)Nc1ccncc1`, the cell number change was -44.6%. Further, under setting [1], the AC50 was 18.4 µM [falling, single point]. The half-maximal activity concentration (AC50) under setting [2] is 29.1 µM [falling, partial curve, poor fit].

Consider `Cc1noc(C)c1COc1cccc(C(=O)N2CCN(C/C=C/c3ccccc3)CC2)c1`, for which the cell number change was -2.44%. Moreover, the AC50 under setting [2] was 16.4 µM [rising, partial curve].

As to `Fc1ccc(-c2nc3nc4ccccc4nc3n2Cc2ccco2)cc1`, the cell number change was -24.9%.

`C#CCCCCCCCCC(=O)NCCCC`: the AC50 under setting [1] was 6.51 µM [falling, single point].

Turning to `Cc1ccc(C(=O)NCCCN2CCOCC2)c(Cl)c1`, the cell number change is -1.46%.

For `COc1cc(C(C)=O)ccc1OCc1cc(C(=O)N2CCSCC2)no1`, the cell number change turned out to be 37.6%. Also, under setting [1], the AC50 is 0.231 µM [rising, full curve, poor fit].

With `CCOc1ccc2nc(NC(=O)CS(=O)(=O)c3ccccc3)sc2c1`, the AC50 under setting [2] was 0.651 µM [rising, single point].

Consider `CC(=O)Nc1ccc(CN2CCN(CC(C)C)C(CCO)C2)cc1` (stereo not drawn), for which the cell number change is 1.94%. The AC50 under setting [2] is 29.1 µM [rising, single point].

Turning to `COc1ccc(NC(=O)c2ccc3c(c2)OCO3)cc1[N+](=O)[O-]`, the cell number change was -50.5%. The AC50 under setting [1] is 16.4 µM [falling, single point].

`S=C(NCc1ccco1)N1CCN(c2ccccc2Cl)CC1`: the cell number change was determined as 45.8%. Moreover, under setting [1], the AC50 was 3.26 µM [rising, full curve]. Under setting [2], the half-maximal activity concentration (AC50) was 3.66 µM [rising, partial curve, poor fit].

`O=C(Nc1ccc(N2CCCC2)cc1)c1cc2ccccc2o1`: the cell number change was -52.5%. Also, under setting [1], the concentration at half-maximal activity (AC50) is 5.17 µM [falling, partial curve]. In addition, the AC50 under setting [2] is 0.731 µM [falling, full curve, poor fit].

Consider `CN(C)c1ccc(C(c2ccc(N(C)C)cc2)c2ccc([N+](=O)[O-])cc2)cc1`, for which the cell number change was -59.5%. Also, under setting [1], the AC50 is 14.6 µM [falling, partial curve, poor fit]. Further, the AC50 under setting [2] is 18.4 µM [falling, single point].

`COC(=O)C(CC(=O)c1ccc(Br)cc1)n1ccnc1` (stereo not drawn): the cell number change was -157%. For the same molecule, the concentration at half-maximal activity (AC50) under setting [1] was 29.1 µM [falling, partial curve]. Further, the concentration at half-maximal activity (AC50) under setting [2] was 0.58 µM [falling, single point].

As to `C[C@H](NC(N)=O)C(=O)OCC(=O)Nc1ccc(OC(F)F)cc1`, the cell number change came out at 64.3%.

With `CC(OC(=O)c1cccc(-n2cnnn2)c1)c1nc2ccccc2c(=O)[nH]1` (stereo not drawn), the cell number change is -2.08%. In addition, under setting [2], the AC50 is 18.4 µM [rising, partial curve, poor fit].

As for `O=C(CC(Nc1ccc(F)cc1)C(=O)OCC(=O)c1cccs1)c1ccccc1` (stereo not drawn), the cell number change is -19.4%. Further, the AC50 under setting [2] was 29.1 µM [falling, single point].

`COc1ccc(-c2cn3cc(C(F)(F)F)cc(Cl)c3n2)cc1`: the cell number change is -72.9%. In addition, the AC50 under setting [1] is 1.46 µM [falling, partial curve]. Under setting [2], the AC50 was 0.651 µM [falling, single point].

`CCOc1ccc(OCC(=O)OCC(=O)N(CC(C)C)c2c(N)n(Cc3ccccc3)c(=O)[nH]c2=O)cc1`: the cell number change was 1.04%. In addition, under setting [1], the AC50 is 0.058 µM [falling, full curve, poor fit].

On to `O=C(NCc1ccc2c(c1)OCO2)c1ccc2c(c1)OCCO2`, for which the cell number change stood at 56.5%. For the same molecule, the AC50 under setting [1] is 18.4 µM [rising, single point].

`O=C(O)c1ccc(CNC(=O)c2ccc3c(c2)OCCO3)cc1`: the cell number change is 28.6%. Besides, under setting [2], the AC50 is 29.1 µM [rising, single point].

As for `Cc1cccc(N2CCN(CCCNC(=O)C3CCCN(c4ncnc5c4nc4n5CCCCC4)C3)CC2C)c1` (stereo not drawn), the cell number change turned out to be 16.4%. Under setting [2], the AC50 is 0.116 µM [rising, full curve, poor fit].

Regarding `C=CCNc1nc(C(=O)OCC(=O)c2ccc(C)c([N+](=O)[O-])c2)cs1`, the cell number change is -0.758%. In addition, the concentration at half-maximal activity (AC50) under setting [1] is 0.58 µM [rising, single point]. The AC50 under setting [2] is 6.51 µM [rising, single point].

`CCN(C1CCS(=O)(=O)C1)S(=O)(=O)c1cccc([N+](=O)[O-])c1` (stereo not drawn): the cell number change is -8.98%. Further, the AC50 under setting [2] was 0.092 µM [falling, full curve, poor fit].

In the case of `COc1ccc(S(=O)(=O)N2CCOCC2)cc1NC(=O)Cc1ccc(Cl)c(Cl)c1`, the half-maximal activity concentration (AC50) under setting [1] is 0.651 µM [falling, full curve].

On to `O=C(COc1cccnc1[N+](=O)[O-])NCCc1ccc(F)cc1`, for which the cell number change was determined as 9.93%. Further, the half-maximal activity concentration (AC50) under setting [2] was 13 µM [rising, partial curve].

For `CSc1ccc(S(=O)(=O)NCC(=O)OC2CCOC2=O)cc1[N+](=O)[O-]` (stereo not drawn), the cell number change is -7%. For the same molecule, the AC50 under setting [1] was 0.0731 µM [falling, full curve, poor fit].

With `C=CCC(=O)NC1CCCc2c1cnn2-c1cc(F)cc(F)c1` (stereo not drawn), the cell number change is -37.9%. Under setting [1], the AC50 was 0.206 µM [falling, full curve].

With `O=C(NNc1nc(-c2ccc(Cl)cc2)cs1)c1ccco1`, the cell number change was -76.5%. The AC50 under setting [1] was 16.4 µM [falling, partial curve]. Moreover, the AC50 under setting [2] was 29.1 µM [falling, single point].

With `COc1ccccc1-n1cnnc1SCC(=O)Nc1cccc(S(=O)(=O)N2CCCCC2)c1`, the cell number change was -11.2%. In addition, under setting [1], the AC50 is 6.51 µM [rising, single point].

For the molecule `CCCC(=O)NC(Nc1cc(C(F)(F)F)ccc1Cl)C(Cl)(Cl)Cl` (stereo not drawn), the cell number change is -53.2%. Also, the half-maximal activity concentration (AC50) under setting [1] is 29.1 µM [falling, single point]. Besides, the half-maximal activity concentration (AC50) under setting [2] was 1.84 µM [falling, partial curve].

Turning to `COc1ccc(C2=NN(C(=O)/C=C/c3ccccc3)C(c3ccccc3)C2)c(OC(C)=O)c1` (stereo not drawn), the cell number change is -20.1%. For the same molecule, the AC50 under setting [2] is 29.1 µM [rising, single point].

`Cc1csc(=O)n1CCC(=O)O`: the cell number change is 19.3%.

For `O=C(COC(=O)c1ccco1)Nc1cccc(Br)c1`, the cell number change was -13.9%. Moreover, under setting [2], the concentration at half-maximal activity (AC50) is 0.517 µM [falling, full curve].

Take `Cc1cc(C)cc(C(=O)NCC(=O)OCC(=O)NCc2ccco2)c1`: the cell number change was -9.09%. In addition, the half-maximal activity concentration (AC50) under setting [2] was 6.51 µM [falling, single point].

As a reminder, the AC50 is the midpoint of the concentration-response curve, whichever way the signal moves.
